# Values joined by “and” are separate entries in the source; they are usually repeats but may differ in a detail not shown here. Equal values may be shown once. Some of the results follow. Shown are side measurements of this screen, not its main read-out; they come without a call. Compounds called inactive in the main read-out are mostly missing here. The note in brackets gives the kind of curve behind each potency; many fits are weak.
# Assay: qHTS Assay to Find Inhibitors of Chronic Active B-Cell Receptor Signaling
# Conditions: ABC-DLBCL IkBa-CBG/CBR reporter, luminescence ratio (green luciferase fused to IkBa over red control in TMD8 lymphoma cells), 4 h
# In short: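 Doxycycline induced both beetle luciferases in TMD8 lymphoma cells; IKK-driven degradation limits the IkappaBalpha-fused green signal, while red luminescence normalises for cell number and nonspecific effects. Compounds tested up to 46 uM, 4 hrs.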
# [1] = measured here: CBR red luminescence, cell number
# [2] = measured here: IkBa-CBG green luminescence
Structure (SMILES),AC50 [1],AC50 [2]
OCCCc1nc2ccccc2n1CCCCOc1ccccc1,"1.58 µM [rising, full curve, poor fit] and 631 nM [rising, full curve, poor fit]",
COc1ccc(NC(=S)NN(C)C(=S)Nc2ccc(OC)cc2)cc1,"23.1 µM [rising, single point]","23.1 µM [falling, single point]"
COc1ccc(-n2c(C)cc(C(=O)CCl)c2C)cc1,"0.708 µM [falling, full curve, poor fit]","22.4 µM [falling, single point]"
CCCCOC(=O)Nc1ccc(N(C)C)cc1,"29.1 µM [falling, single point]",
COc1cc(-c2noc(C)c2C(=O)NCCc2c[nH]c3ccccc23)cc(OC)c1OC,"22.4 µM [falling, single point]",
O=C(Nc1nccs1)C(Br)C(Br)c1ccccc1 (stereo not drawn),"14.1 µM [falling, partial curve]",
Cc1ccc(C(=O)N(C)c2nnc(-c3ccncc3)s2)cc1,"3.55 µM [rising, partial curve, poor fit]",
O=[N+]([O-])c1ccccc1S(=O)(=O)c1ccccc1[N+](=O)[O-],"35.5 µM [rising, single point]",
Cc1ccccc1/C(N)=N/OC(=O)/C=C/c1ccccc1,"29.1 µM [falling, single point]",
CCCNC(=O)c1ccc2c(=O)c(O)c(-c3ccc(Cl)c([N+](=O)[O-])c3)[nH]c2c1,"2.82 µM [rising, partial curve, poor fit]",
O=C1NC[C@@H](c2ccccc2)OC(=O)[C@H](Cc2ccc(F)cc2)C/C=C\C[C@@H]1CC(=O)N(CCO)Cc1ccccc1,"18.4 µM [falling, single point]",
COc1ccccc1CN=Cc1[nH]c2ccc(Br)c(Cl)c2c1O,"25.9 µM [falling, single point]",
COc1ccc(C(CC(=O)Nc2ccccc2OC)n2cccc2)cc1 (stereo not drawn),"1.64 µM [falling, full curve]",
O=C(NC1CCCCC1)c1cc(Nc2cccc(C(F)(F)F)c2)nc2ccccc12,"0.355 µM [falling, full curve, poor fit]",
Clc1ccccc1-c1nn2c(-c3ccncc3)nnc2s1,"29.1 µM [rising, single point]",
COc1ccc2oc(C(=O)N3CCN(C/C=C/c4ccccc4)CC3)c(C)c2c1,"20.6 µM [falling, single point]",
O=c1ccc(-c2nc3ccccc3n2Cc2ccc(Cl)cc2)c[nH]1,"35.5 µM [falling, single point]",
Cc1cc(C)c2c(N)c(C(=O)NNC(=O)c3ccccc3)sc2n1,"10 µM [falling, partial curve]",
CN(Cc1cccc(C(F)(F)F)c1)C(=O)C1CCC(=O)N(CC2CCCCC2)C1 (stereo not drawn),"35.5 µM [falling, single point]",
Cc1cc(N2CCCCC2)nc2ccc(NC(=O)c3ccc(Br)o3)cc12,"23.1 µM [falling, single point]",
C=CCn1c(CSc2nc3ccccc3s2)nnc1SCC(=O)NCc1ccccc1,"18.4 µM [falling, partial curve, poor fit]",
COc1ccc(/C=C/C(=O)Nc2cc(C(F)(F)F)ccc2Cl)cc1OC,"6.51 µM [rising, single point]",

# 4 entries from above, as tab-separated lines.
Structure (SMILES)	AC50 [1]	AC50 [2]
OCCCc1nc2ccccc2n1CCCCOc1ccccc1	1.58 µM [rising, full curve, poor fit] and 631 nM [rising, full curve, poor fit]	
COc1ccc(NC(=S)NN(C)C(=S)Nc2ccc(OC)cc2)cc1	23.1 µM [rising, single point]	23.1 µM [falling, single point]
COc1ccc(-n2c(C)cc(C(=O)CCl)c2C)cc1	0.708 µM [falling, full curve, poor fit]	22.4 µM [falling, single point]
CCCCOC(=O)Nc1ccc(N(C)C)cc1	29.1 µM [falling, single point]	

# The results go on:

Structure (SMILES),AC50 [1],AC50 [2]
Cc1ccc(S(=O)(=O)N2CCN(CC(=O)N/N=C/c3ccc(Br)s3)CC2)cc1,"2.91 µM [falling, single point]",
Cc1ccc(-c2nc3ccccc3s2)cc1NC(=S)NC(=O)c1cccc2ccccc12,"5.17 µM [rising, partial curve, poor fit]",
Cn1nc(C(=O)NNC(=O)c2ccc(Cl)cc2)ccc1=O,"14.6 µM [falling, partial curve, poor fit]",
COc1ccc(CN(C)C(=O)c2ccc(OCC(=O)N3CCOCC3)c(OC)c2)cc1,"0.092 µM [rising, full curve, poor fit]",
CCOC(=O)c1c(N)n(-c2cccc(OC)c2)c2nc3ccccc3nc12,"6.31 µM [rising, single point]",
O=[N+]([O-])c1cccc(NC(=S)NCCc2ccccc2)c1,"32.6 µM [falling, single point]",
CCNc1nc(NC(C)C)nc(OCC)n1,"32.6 µM [rising, single point]",
CCOC(=O)Nc1ccc(S(=O)(=O)N(C)C(C)C)cc1,"29.1 µM [rising, single point]",
Cn1c(N)c(C(=O)COC(=O)CCC2CCCCC2)c(=O)n(C)c1=O,,"17.8 µM [rising, partial curve, poor fit]"
C/C(=N\NC(=O)c1c(-c2ccccc2Cl)noc1C)c1cccc(NC(=O)C(C)C)c1,"1.3 µM [rising, partial curve, poor fit]",
Oc1ccc(-c2nc3ccccn3c2NCc2ccco2)cc1,"0.398 µM [falling, full curve, poor fit]",
Cc1nc(SCc2cccc(F)c2)[nH]c(=O)c1C#N,"11.2 µM [falling, single point]",
C=CCNc1nc(Nc2ccc(OC)cc2OC)nc(OCC)n1,"0.447 µM [rising, full curve, poor fit]",
Cc1ccccc1CN(C)C(C)C(=O)Nc1ccccc1F (stereo not drawn),"14.1 µM [rising, single point]",
COc1cc(NC(=O)CSc2nnc(NC(C)C)s2)cc(OC)c1OC,"2.82 µM [rising, full curve]",
C/C(=N\NC(=O)c1ccc2c(c1)OCO2)c1ccc(NC(=O)CCCC(=O)O)cc1,"1.78 µM [falling, full curve]",
Cc1ccccc1C(=O)Nc1nc2n(n1)C(c1ccccc1)CC(=O)N2 (stereo not drawn),"29.1 µM [falling, single point]",
Cc1ccc(N2N=C(C(=O)O)CCC2=O)cc1Cl,"3.55 µM [falling, single point]",
O=C(Nc1ccc(Cl)cc1)c1cccc(N2C(=O)C3C4CCC(C4)C3C2=O)c1 (stereo not drawn),"25.9 µM [falling, partial curve]",
O=C(Nc1ccc(Cl)cn1)c1cccc(OCc2ccccc2)c1,,"17.8 µM [falling, partial curve, poor fit]"
Cc1nc(C)c(C(=O)N(c2ccc(C)c(C)c2)C(C(=O)NCc2ccco2)c2ccccc2)s1 (stereo not drawn),"18.4 µM [falling, single point]",
O=C1c2ccccc2C(=O)C12OC2c1ccc(Cl)cc1Cl (stereo not drawn),"7.31 µM [falling, partial curve]",

Structure (SMILES),AC50 [1],AC50 [2]
Cc1ccc(/C=C/c2ccc(=O)n(Cc3ccccc3Cl)n2)cc1,"29.1 µM [falling, single point]",
O=C(Nc1c(C(=O)N2CCOCC2)oc2ccccc12)c1cccc([N+](=O)[O-])c1,"12.6 µM [rising, partial curve, poor fit]",
Cc1ccccc1-c1nc(C#N)c(N2CCC(C)CC2)o1,"15.8 µM [rising, partial curve, poor fit]",
Cc1cc2c3c(c1)C(C)CC(C)(C)N3C(=O)C2=O (stereo not drawn),"17.8 µM [rising, single point]","22.4 µM [falling, single point]"
Cc1cc2ncn(CCOc3ccccc3)c2cc1C,"35.5 µM [falling, single point]",
Fc1ccc(Cn2c(SCc3ccc(F)c(C(F)(F)F)c3)nnc2C(F)(F)F)cc1,"35.5 µM [falling, single point]",
O=C(Nc1nnc(-c2ccc(F)cc2)o1)c1cc(Cl)sc1Cl,"4.61 µM [falling, full curve]",
COCCCNC(=S)NNC(=S)Nc1ccc(F)cc1F,"4.11 µM [falling, full curve, poor fit]",
COc1ccc(/C=C2\CCc3ccccc3C2=O)cc1O,"35.5 µM [falling, single point]","6.31 µM [falling, full curve]"
COC(=O)c1sc(NC(=O)c2ccc(C)o2)nc1C,"14.6 µM [falling, single point]",
COc1ccc(NS(=O)(=O)c2c(F)cccc2F)cc1S(=O)(=O)N1CCOCC1,"1.03 µM [falling, partial curve, poor fit]",
Clc1ccc2nc(CSc3ccccc3)cn2c1,"12.6 µM [falling, single point]",
O=C(COC(=O)c1cccc(O)c1)c1ccccc1,"16.4 µM [falling, single point]",
O=C(CSc1nc2ccccc2c(=O)[nH]1)c1ccc(O)c(O)c1,"2.59 µM [rising, partial curve, poor fit]",
c1ccc2nc(-c3nc4ccccc4[nH]3)ccc2c1,"4.11 µM [falling, full curve]",
CC(=C1C(=O)c2ccccc2C1=O)N1CCN(C/C=C/c2ccccc2)CC1,"0.13 µM [falling, full curve, poor fit]",
COc1ccccc1C=NNC(=O)c1ccccc1OCCOc1ccccc1,"10.3 µM [falling, single point]",
CN=C1SC(CC(=O)Nc2cccc(C(F)(F)F)c2)C(=O)N1C (stereo not drawn),"16.4 µM [rising, partial curve]",
CCOC(=O)c1c2ccccc2[n+]([O-])n1CCO,"29.1 µM [falling, partial curve, poor fit]",
Cc1cc(-c2n[nH]c(=S)n2/N=C/C(Br)=C/c2ccccc2)n[nH]1,"11.6 µM [falling, partial curve]",

# — PubChem BioAssay AID493014 (National Center for Advancing Translational Sciences (NCATS), 2011)
